These results are taken from patent US20230142739A1, “PROTEIN-PROTEIN INTERACTION STABILIZERS” (The Regents of the University of California, priority 2020, published 2023).

The data set has as its system 14-3-3/ERα-pp. As to the kind of experiment: Ligand-observed NMR (T1p relaxation, waterLOGSY). In kind it is binding, human.

`CC(C)(Oc1ccc(Cl)cc1)C(=O)N1CCCCC1` [2-(4-chlorophenoxy)-2-methyl-1-(piperidin-1-yl)propan-1-one] came in with a T1p self-relaxation (absence of protein-peptide, 10 ms and 200 ms, 200 μM ligand) of 11%. The T1p relaxation (presence of protein-peptide (10 μM 14-3-3σ, 15 μM ERα-pp, 200 μM ligand)) was 42%.
